According to patent publication US20100056431A1 (priority 2006, published 2010):

Assay: peptide made by a vendor
Settings: whole synthesis

## LLGDFFRKSKEKIGKEFKRIVQRIKDFLRNLVPRTES
  final purity (method not given): 98%

Where a sequence shows no end group, the ends are not given.
